Experimental data taken from the supplement of paper PMC10338343.
± gives the standard deviation. This is a selection; strong and weak results do not stand in their true shares. The uncertainty is large for many entries. Some of the results follow.

Assays:
[1] = tested on: MILI (PIWIL2) piRISC loaded with L1MC piRNA (26 nt); assay: pre-steady-state target cleavage rate (min^-1); higher = faster piRNA-guided slicing of the target; conditions: guide: L1MC piRNA 5'p-UAACUAAAUACUAUGCAAGCUGUAGG;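 also: 1 nM active piRISC with 0.1 nM target library at 33 °C single turnover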
Procedure, shortened: (§1)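 The pre-steady-state cleavage rate was derived from a burst-and-steady-state fit of Cleave-'n-Seq data. For these assays, 1 nM active affinity-purified piRISC loaded with a single synthetic guide was mixed with […] a transcribed, DNA-blocked target RNA library in HEPES–potassium acetate buffer at 33 °C, with or without 500 nM GTSF1 partner protein, for 0–8 or 0–960 min. Sequencing counts of uncleaved targets were normalised to depth and to weakly complementary targets, and k3 was capped at 0.0001 min^-1 after three trials were pooled.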

[2] = tested on: EfPiwi piRISC loaded with L1MC piRNA (26 nt); assay: pre-steady-state target cleavage rate (min^-1); guide: L1MC piRNA 5'p-UAACUAAAUACUAUGCAAGCUGUAGG; MIWI and MILI are mouse PIWI proteins and EfPiwi is from a freshwater sponge; tags in brackets are library labels; higher = faster piRNA-guided slicing of the target
Procedure, shortened: as §1

[3] = auxiliary factor: none (no GTSF1)
[4] = auxiliary factor: 500 nM Ephydatia muelleri Gtsf1
[5] = auxiliary factor: none (no Gtsf1)
[6] = auxiliary factor: 500 nM mouse GTSF1

Row | Sequence | pre-steady-state target cleavage rate [1, 3] | pre-steady-state target cleavage rate [2, 4] | pre-steady-state target cleavage rate [2, 5] | pre-steady-state target cleavage rate [1, 6]
1 | UCCUGCUACACCUUGCAUAGUAUUUACUUA | 0.0014 ± 0.006 | 0.00306 ± 0.003 | 0.00062 ± 0.013 | 
2 | UCCUGGAUGAGCUUGCAUUGUAUUUAGAAA | 0.00096 ± 0.0075 | 0.00384 ± 0.0021 | 0.000586 ± 0.013 | 
3 | UCCUGGAUGUGCUUGCAUAGUAUUUACAAA | 0.00159 ± 0.0042 | 0.00369 ± 0.0033 | 0.000151 ± 0.061 | 
4 | UCCUGCUACACGAUGCAUAGUAUUUUCAAA | 0.000586 ± 0.01 | 0.00241 ± 0.0034 | 0.000212 ± 0.033 | 
5 | UCCUGGAACUGCUUGCAUAGUAUUUAGAUA | 0.00195 ± 0.004 | 0.00297 ± 0.002 | 0.00015 ± 0.058 | 
6 | UCCUGGAUCAGCAUGCAUAGUAUUUAGUUA |  | 0.12 ± 0.026 | 0.00148 ± 0.0056 | 0.314 ± 0.019
7 | UCCUGGAUGUCGAACGUAUCUAAUUUGUUA | 0.000176 ± 0.016 | 0.000535 ± 0.011 | 0.000163 ± 0.026 | 
8 | UCCUGCUACAGCUUGGAUAGUAUUUACUUA | 0.000205 ± 0.014 | 0.00152 ± 0.0027 | 0.00012 ± 0.04 | 
9 | UCCUCCAACAGCAUGCAUAGUAUUUAGUUA |  | 0.0161 ± 0.0047 | 0.001 ± 0.0071 | 0.282 ± 0.016
10 | UCCUGCUACAGCUUGCAUAGUAUAUACUUA | 0.00139 ± 0.0053 | 0.00132 ± 0.0038 | 0.000552 ± 0.01 | 
11 | UCCUGGUACAGCUUGCAAAGUAUUUUGUUA | 0.00273 ± 0.0032 | 0.00296 ± 0.0029 | 0.000166 ± 0.031 | 
12 | UCCUGGUACAGCUUGCAUACUAUAUAGUUA | 0.00129 ± 0.006 | 0.000911 ± 0.0041 | 0.000363 ± 0.019 | 
13 | UCCUGGAACAGCUUGCAUACUAAUUAGUUA | 0.00267 ± 0.003 | 0.00305 ± 0.0029 | 0.000434 ± 0.018 | 
14 | UCCUCCUACAGCUAGCAUAGUAUUUACUUA | 0.00244 ± 0.0027 | 0.00296 ± 0.0027 | 0.000439 ± 0.011 | 
15 | UCCUGGAUGAGCUUGCAAAGUAUUUAGAUA | 0.00124 ± 0.0055 | 0.00201 ± 0.0032 | 0.000431 ± 0.021 | 
16 | UCCUCCAACAGCUUGCAUAGUAUUUUGUUA | 0.00221 ± 0.003 | 0.00594 ± 0.0025 | 0.000855 ± 0.0073 | 
17 | UCCUGGAACAGCUUGCAUAUAUUUAGUUA | 0.00209 ± 0.0037 | 0.00191 ± 0.0025 | 0.00124 ± 0.0068 | 
18 | UCCUGGAACAGCUUGCAUAGUAUUAUCAAA | 0.00115 ± 0.0055 | 0.000895 ± 0.005 | 0.000342 ± 0.021 | 
19 | UCCUGGAACAGCUUGCAUACUAUUUUGUUA | 0.00115 ± 0.0059 | 0.00252 ± 0.0023 | 0.000794 ± 0.011 | 
20 | UCCUGGAUGUGGUUGCAUAGUAUUUACUUA | 0.00211 ± 0.0049 | 0.00186 ± 0.0056 | 0.000277 ± 0.049 | 
21 | UCCUGGUACAGCUUGCAUACUAUUAAGUUA | 0.00154 ± 0.0045 | 0.00282 ± 0.0022 | 0.00051 ± 0.018 | 
22 | UCCUGCUACAGCUAGCAUAGAAUUUAGUUA | 0.00164 ± 0.0046 | 0.00327 ± 0.0022 | 0.000941 ± 0.0061 | 
23 | UCCUGGAUGAGCUUGCAAAGUAUUUAGAAA | 0.00124 ± 0.0053 | 0.00395 ± 0.0031 | 0.000464 ± 0.017 | 
24 | UCCUGGUACAGCUUGCAUAGUUAAUUCAAA | 0.00215 ± 0.0039 | 0.000552 ± 0.012 | 0.000418 ± 0.029 | 
25 | UCCUGGAACAGCUUGCAUAGAAUUAAGUUA | 0.00101 ± 0.0065 | 0.00115 ± 0.0033 | 0.00049 ± 0.013 | 
26 | UCCUGGAUGUCGUUGCAUAGUAUAUAGUAA | 0.00213 ± 0.0034 | 0.000321 ± 0.012 | 0.000116 ± 0.072 | 

Quoted from above, entries 10–16
Row | Sequence | pre-steady-state target cleavage rate [1, 3] | pre-steady-state target cleavage rate [2, 4] | pre-steady-state target cleavage rate [2, 5] | pre-steady-state target cleavage rate [1, 6]
10 | UCCUGCUACAGCUUGCAUAGUAUAUACUUA | 0.00139 ± 0.0053 | 0.00132 ± 0.0038 | 0.000552 ± 0.01 | 
11 | UCCUGGUACAGCUUGCAAAGUAUUUUGUUA | 0.00273 ± 0.0032 | 0.00296 ± 0.0029 | 0.000166 ± 0.031 | 
12 | UCCUGGUACAGCUUGCAUACUAUAUAGUUA | 0.00129 ± 0.006 | 0.000911 ± 0.0041 | 0.000363 ± 0.019 | 
13 | UCCUGGAACAGCUUGCAUACUAAUUAGUUA | 0.00267 ± 0.003 | 0.00305 ± 0.0029 | 0.000434 ± 0.018 | 
14 | UCCUCCUACAGCUAGCAUAGUAUUUACUUA | 0.00244 ± 0.0027 | 0.00296 ± 0.0027 | 0.000439 ± 0.011 | 
15 | UCCUGGAUGAGCUUGCAAAGUAUUUAGAUA | 0.00124 ± 0.0055 | 0.00201 ± 0.0032 | 0.000431 ± 0.021 | 
16 | UCCUCCAACAGCUUGCAUAGUAUUUUGUUA | 0.00221 ± 0.003 | 0.00594 ± 0.0025 | 0.000855 ± 0.0073 | 
